This is one part of the list. The data scatter; read single values as rough.

By UniProt entry, the sequences of proteins in these tests, tags left out. Where a name states a change or a piece, a line headed by the entry shows the natural chain unless it says otherwise. Residues count along the entry.
UniProt A1L0T0, 557-577: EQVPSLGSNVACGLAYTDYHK
UniProt Q9NVH2, whole entry, looked up: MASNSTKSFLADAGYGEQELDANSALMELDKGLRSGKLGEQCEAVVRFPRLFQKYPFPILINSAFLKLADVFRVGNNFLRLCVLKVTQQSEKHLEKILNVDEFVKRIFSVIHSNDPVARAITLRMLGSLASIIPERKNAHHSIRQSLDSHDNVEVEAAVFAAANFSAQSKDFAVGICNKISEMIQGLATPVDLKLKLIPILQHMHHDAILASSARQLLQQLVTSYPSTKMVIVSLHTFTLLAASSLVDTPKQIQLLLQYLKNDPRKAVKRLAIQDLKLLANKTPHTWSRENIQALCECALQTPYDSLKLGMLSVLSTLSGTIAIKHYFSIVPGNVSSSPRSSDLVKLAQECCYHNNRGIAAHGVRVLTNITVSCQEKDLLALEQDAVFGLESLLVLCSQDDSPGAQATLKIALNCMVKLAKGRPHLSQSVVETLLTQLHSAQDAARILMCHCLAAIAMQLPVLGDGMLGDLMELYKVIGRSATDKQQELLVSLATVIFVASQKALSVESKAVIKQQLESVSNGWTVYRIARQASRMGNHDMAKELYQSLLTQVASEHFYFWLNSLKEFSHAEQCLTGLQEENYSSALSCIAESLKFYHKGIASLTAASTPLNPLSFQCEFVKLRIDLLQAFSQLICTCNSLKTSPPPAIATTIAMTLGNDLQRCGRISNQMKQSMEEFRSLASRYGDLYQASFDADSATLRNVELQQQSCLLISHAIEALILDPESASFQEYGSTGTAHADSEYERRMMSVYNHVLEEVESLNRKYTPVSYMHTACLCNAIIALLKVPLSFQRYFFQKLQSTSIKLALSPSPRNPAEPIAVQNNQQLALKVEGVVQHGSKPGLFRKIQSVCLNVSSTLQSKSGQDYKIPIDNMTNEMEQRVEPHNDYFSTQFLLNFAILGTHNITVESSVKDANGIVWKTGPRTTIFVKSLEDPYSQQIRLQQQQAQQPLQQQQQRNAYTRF
UniProt Q96F46, whole entry, looked up: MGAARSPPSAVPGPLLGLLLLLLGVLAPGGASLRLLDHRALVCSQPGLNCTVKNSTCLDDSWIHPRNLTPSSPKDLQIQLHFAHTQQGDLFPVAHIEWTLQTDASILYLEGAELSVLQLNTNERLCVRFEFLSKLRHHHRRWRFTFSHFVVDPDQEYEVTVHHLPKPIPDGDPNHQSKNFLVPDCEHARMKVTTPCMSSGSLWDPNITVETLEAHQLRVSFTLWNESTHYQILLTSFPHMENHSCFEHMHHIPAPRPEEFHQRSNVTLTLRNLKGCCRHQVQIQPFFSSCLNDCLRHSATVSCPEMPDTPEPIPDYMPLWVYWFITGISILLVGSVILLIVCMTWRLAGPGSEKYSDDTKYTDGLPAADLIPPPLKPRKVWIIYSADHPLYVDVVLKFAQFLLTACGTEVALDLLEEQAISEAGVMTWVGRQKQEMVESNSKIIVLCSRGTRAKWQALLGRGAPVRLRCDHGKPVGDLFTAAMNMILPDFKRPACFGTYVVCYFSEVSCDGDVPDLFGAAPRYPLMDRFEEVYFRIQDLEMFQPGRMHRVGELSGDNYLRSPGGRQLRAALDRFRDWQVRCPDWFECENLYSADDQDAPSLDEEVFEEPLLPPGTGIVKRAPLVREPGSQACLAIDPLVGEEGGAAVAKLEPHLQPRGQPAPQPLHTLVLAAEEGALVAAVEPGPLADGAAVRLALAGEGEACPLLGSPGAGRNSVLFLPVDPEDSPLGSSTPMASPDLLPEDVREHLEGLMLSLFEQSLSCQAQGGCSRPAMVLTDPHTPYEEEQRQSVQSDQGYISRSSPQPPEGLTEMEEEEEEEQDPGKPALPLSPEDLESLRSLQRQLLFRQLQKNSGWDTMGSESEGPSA
UniProt P00492: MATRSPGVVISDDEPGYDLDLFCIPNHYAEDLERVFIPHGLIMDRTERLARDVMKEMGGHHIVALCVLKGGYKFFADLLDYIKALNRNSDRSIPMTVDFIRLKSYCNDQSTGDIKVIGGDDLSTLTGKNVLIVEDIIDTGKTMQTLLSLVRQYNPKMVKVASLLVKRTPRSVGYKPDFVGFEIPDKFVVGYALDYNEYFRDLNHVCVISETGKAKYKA
UniProt Q6YN16, 68-87: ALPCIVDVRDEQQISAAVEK
UniProt P49441: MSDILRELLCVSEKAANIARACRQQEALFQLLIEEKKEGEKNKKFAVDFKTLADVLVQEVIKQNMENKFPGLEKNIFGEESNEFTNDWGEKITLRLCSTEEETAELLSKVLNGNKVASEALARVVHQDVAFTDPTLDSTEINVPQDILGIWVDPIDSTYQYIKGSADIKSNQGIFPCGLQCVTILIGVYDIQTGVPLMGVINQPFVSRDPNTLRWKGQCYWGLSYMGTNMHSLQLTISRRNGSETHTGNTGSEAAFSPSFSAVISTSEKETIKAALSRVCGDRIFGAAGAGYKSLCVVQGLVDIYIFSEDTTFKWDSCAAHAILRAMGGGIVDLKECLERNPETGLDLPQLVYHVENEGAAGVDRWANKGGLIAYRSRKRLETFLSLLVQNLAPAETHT
UniProt P17181: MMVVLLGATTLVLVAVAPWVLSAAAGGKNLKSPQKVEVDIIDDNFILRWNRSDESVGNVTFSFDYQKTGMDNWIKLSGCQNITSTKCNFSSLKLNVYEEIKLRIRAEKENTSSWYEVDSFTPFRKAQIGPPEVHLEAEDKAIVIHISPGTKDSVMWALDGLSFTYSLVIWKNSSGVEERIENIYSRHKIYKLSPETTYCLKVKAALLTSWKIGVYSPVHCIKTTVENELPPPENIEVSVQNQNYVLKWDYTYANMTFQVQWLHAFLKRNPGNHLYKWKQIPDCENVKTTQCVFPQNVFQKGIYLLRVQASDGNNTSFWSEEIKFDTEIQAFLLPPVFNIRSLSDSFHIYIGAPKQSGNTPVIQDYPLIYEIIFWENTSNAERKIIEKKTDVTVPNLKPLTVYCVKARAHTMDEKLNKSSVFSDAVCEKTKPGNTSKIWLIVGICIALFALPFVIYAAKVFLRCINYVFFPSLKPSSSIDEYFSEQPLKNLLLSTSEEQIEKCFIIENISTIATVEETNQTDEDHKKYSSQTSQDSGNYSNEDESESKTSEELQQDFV
UniProt O43464: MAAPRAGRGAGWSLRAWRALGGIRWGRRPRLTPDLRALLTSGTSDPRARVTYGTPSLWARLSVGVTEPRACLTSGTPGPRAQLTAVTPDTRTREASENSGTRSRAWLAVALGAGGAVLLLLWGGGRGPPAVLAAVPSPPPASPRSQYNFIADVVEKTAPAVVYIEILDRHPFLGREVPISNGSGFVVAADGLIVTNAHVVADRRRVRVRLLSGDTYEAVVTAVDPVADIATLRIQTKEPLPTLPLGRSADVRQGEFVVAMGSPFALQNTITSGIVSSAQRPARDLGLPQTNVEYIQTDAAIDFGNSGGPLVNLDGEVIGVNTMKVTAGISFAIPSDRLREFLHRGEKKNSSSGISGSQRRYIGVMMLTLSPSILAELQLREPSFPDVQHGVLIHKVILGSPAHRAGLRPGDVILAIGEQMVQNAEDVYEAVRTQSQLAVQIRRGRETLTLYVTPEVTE
UniProt Q5TA45: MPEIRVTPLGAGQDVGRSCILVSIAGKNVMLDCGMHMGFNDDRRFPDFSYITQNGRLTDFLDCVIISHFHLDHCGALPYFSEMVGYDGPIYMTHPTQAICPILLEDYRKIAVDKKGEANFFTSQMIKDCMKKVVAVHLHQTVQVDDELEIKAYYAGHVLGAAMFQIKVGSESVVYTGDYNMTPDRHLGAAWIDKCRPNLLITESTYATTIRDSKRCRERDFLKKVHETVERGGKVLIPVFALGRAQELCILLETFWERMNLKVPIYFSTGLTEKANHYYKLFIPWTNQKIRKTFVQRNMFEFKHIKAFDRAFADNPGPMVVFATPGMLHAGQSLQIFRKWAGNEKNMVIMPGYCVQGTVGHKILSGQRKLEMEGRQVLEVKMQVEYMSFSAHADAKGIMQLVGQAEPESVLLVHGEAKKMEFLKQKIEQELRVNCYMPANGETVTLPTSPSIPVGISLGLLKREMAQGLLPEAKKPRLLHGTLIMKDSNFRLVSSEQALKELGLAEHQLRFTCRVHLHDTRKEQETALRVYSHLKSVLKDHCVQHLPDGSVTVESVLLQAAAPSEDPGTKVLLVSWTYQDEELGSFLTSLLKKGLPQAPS
UniProt P08069: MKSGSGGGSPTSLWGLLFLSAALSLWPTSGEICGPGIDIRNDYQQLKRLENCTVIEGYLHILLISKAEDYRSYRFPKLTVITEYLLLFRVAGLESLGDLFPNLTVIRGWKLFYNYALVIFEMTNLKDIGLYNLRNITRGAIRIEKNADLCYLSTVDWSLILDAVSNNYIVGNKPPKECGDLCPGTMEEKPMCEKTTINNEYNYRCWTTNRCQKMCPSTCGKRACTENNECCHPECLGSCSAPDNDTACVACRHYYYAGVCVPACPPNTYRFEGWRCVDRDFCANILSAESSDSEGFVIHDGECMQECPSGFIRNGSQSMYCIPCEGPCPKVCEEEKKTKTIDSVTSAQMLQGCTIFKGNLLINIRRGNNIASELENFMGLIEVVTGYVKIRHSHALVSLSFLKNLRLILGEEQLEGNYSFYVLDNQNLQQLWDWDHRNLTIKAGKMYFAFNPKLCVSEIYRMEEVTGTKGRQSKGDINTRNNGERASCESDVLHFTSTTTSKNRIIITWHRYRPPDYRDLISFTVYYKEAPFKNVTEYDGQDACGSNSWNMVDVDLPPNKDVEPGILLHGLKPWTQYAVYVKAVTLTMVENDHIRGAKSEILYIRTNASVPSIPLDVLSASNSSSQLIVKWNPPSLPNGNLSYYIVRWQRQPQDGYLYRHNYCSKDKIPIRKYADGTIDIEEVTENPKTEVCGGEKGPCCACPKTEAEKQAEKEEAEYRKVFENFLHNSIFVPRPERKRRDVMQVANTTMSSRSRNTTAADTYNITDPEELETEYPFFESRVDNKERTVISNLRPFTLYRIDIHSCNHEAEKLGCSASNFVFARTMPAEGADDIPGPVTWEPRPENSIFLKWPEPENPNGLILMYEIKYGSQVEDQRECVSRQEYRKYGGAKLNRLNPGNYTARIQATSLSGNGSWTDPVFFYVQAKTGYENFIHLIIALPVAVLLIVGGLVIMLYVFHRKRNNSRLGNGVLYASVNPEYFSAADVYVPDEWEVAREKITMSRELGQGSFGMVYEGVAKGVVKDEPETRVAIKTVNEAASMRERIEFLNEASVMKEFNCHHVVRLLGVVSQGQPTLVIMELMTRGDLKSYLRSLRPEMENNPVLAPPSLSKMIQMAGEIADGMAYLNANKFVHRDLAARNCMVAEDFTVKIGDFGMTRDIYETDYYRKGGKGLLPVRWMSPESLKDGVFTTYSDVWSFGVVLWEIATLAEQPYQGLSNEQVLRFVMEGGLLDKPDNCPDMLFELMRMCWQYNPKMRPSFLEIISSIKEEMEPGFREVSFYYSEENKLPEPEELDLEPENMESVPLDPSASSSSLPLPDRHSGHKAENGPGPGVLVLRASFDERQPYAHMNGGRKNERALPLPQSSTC
UniProt Q659A1: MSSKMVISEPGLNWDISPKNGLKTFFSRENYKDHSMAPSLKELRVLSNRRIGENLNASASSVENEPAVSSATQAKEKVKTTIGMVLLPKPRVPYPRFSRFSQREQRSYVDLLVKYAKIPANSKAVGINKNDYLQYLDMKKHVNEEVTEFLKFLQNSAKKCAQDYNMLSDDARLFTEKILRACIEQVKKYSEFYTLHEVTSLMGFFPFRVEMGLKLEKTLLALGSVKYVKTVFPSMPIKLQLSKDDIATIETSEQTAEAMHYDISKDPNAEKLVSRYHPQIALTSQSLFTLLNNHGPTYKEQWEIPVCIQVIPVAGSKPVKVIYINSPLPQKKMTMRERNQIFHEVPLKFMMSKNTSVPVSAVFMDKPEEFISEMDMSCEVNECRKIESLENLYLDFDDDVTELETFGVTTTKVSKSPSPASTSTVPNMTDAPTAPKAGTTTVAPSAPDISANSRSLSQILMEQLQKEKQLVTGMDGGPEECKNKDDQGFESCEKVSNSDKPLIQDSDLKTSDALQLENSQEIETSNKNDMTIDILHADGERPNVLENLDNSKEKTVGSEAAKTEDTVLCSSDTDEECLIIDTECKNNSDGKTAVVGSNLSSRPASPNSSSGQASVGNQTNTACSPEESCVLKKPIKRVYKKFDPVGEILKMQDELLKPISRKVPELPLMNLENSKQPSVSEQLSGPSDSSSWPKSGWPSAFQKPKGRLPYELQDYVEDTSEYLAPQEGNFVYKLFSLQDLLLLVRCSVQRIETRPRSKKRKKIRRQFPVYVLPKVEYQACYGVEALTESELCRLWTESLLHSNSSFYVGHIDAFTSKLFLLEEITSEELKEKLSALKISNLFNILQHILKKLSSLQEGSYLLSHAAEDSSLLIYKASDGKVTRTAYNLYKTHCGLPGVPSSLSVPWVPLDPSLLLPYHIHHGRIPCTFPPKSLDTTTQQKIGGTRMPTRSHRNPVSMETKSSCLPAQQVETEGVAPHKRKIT
UniProt Q9NV88, 463-485: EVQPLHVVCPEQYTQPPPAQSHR

Compound in one assay: ClCC(=O)N[C@H]1CCCc2ccccc12
In words: log2 mean competition ratio of IA-DTB cysteine labelling (DMSO/compound) (log2 ratio); higher = stronger cysteine engagement by compound. As to conditions: 50 µM; treatment time: 4 h; cell line lysate: HEK293T. How it is done:
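IA-DTB competitive cysteine chemoproteomics in HEK293T RIPA lysate. Lysates were treated with compound 29 or 30 at 50 or 200 µM for 4 h, then IA-DTB (500 µM, 1 h), trypsin-digested, NeutrAvidin-enriched and analysed by diaPASEF. Competition ratio = intensity DMSO / intensity compound (n=4 treated, n=64 DMSO); binding: mean log2 CR ≥ 1 and p ≤ 0.05 plus QC filters. Target is the cysteine site.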
As to INTS2 C988 (UniProt Q9H0H0), the “log2 mean competition ratio” value was -0.243. Same read-out and setting: then ILVBL C568 (UniProt A1L0T0), with 0.446; and INTS7 C42 (UniProt Q9NVH2), with -0.0857. The same measure, in the same setting: then HPS6 C141 (UniProt Q86YV9), with -0.217; and IPO5 C733, with -0.32. On the same count and under the same terms, then HSPH1 C845, with 0.0243; and IL17RA C185 (UniProt Q96F46), with 0.205. HPRT1 C206 (UniProt P00492): the “log2 mean competition ratio” value amounted to 0.206. Turning to IARS1 C120, the “log2 mean competition ratio” value is -0.181.

The assay is the same for the next values; noted with them: 200 µM; treatment time: 4 h; cell line lysate: HEK293T.
Turning to IP6K1 C349 (UniProt Q92551), the “log2 mean competition ratio” value came out at 0.587. As for HSDL2 C71 (UniProt Q6YN16), the “log2 mean competition ratio” value was 0.0386. On the same count and under the same terms, to INPP1 C10 (UniProt P49441) belongs -0.0812; to IFNAR1 C426 (UniProt P17181), 0.01; to HTT C2013 (UniProt P42858), 0.102. The same measure, in the same setting: then HTRA2 C71 (UniProt O43464), with -0.179; and INTS11 C354 (UniProt Q5TA45), with 0.0883; and IARS2 C883 (UniProt Q9NSE4), with 0.0187. The same measure, in the same setting: to IGF1R C488 (UniProt P08069) belongs -0.199; to HPF1 C152 (UniProt Q9NWY4), -0.296. As to HOXD13 C40, the “log2 mean competition ratio” value was -0.0328. The same measure, in the same setting: to IRAK1 C225 (UniProt P51617) belongs 0.112; to HSPBP1 C310, 0.408; to IRF2BP1 C518 (UniProt Q8IU81), -0.319. The same measure, in the same setting: then INTS7 C374 (UniProt Q9NVH2), with -0.141. The same measure, in the same setting: to INPPL1 C1187 (UniProt O15357) belongs -0.234. As for HOXD11 C225, the “log2 mean competition ratio” value is 0.0713. Same read-out and setting: to HUWE1 C3239 belongs 0.0366; to IRF2BP1 C207 (UniProt Q8IU81), 0.284; to HSDL1 C328 (UniProt Q3SXM5), 0.393. Same read-out and setting: to HUWE1 C471 belongs 0.351; to IFT140 C1360 (UniProt Q96RY7), -0.0655; to ICE2 C492 (UniProt Q659A1), 0.782. Same read-out and setting: to HUWE1 C1074 belongs -0.293; to IQGAP2 C1183 (UniProt Q13576), -0.175; to HTT C942 (UniProt P42858), -0.0425.

As for HUWE1 C1401, the “log2 mean competition ratio” value turned out to be 0.0889. Still for that read-out and setting: then INTS9 C471 (UniProt Q9NV88), with -0.13; and IRF2BP2 C521 (UniProt Q7Z5L9), with -0.247. Regarding INTS2 C988 (UniProt Q9H0H0), the “log2 mean competition ratio” value was 0.145. Same read-out and setting: to ILVBL C568 (UniProt A1L0T0) belongs -0.0347; to INTS7 C42 (UniProt Q9NVH2), 0.0869; to HPS6 C141 (UniProt Q86YV9), -0.1. On the same count and under the same terms, then IPO5 C733, with 0.152. Same read-out and setting: to HSPH1 C845 belongs -0.474; to IL17RA C185 (UniProt Q96F46), 0.14. On to HPRT1 C206 (UniProt P00492), for which the “log2 mean competition ratio” value was 0.0444. IARS1 C120: the “log2 mean competition ratio” value was -0.257.

These data come from the supplement of paper PMC11732987, “Enantioselective OTUD7B fragment discovery through chemoproteomics screening and high-throughput optimisation” (Communications Chemistry, 2025).
